{"source": "PubChem BioAssay AID504444", "about": "(National Center for Advancing Translational Sciences (NCATS), 2011)", "note": "Out of some 360,000 compounds screened, about 7,500 (2.1%) were called active. Inconclusive means that the source gave no clear call. Such entries were picked first, then a sample of the others. The call rests on the fitted dose curve; in most records, active means well fitted inhibition curve with a large enough effect; inconclusive means small, poorly fitted or top-dose-only effect, or effect the other way; inactive means flat fitted curve, though single readings scatter. Potencies beside an inconclusive call are fits to weak or partial responses and may not hold up. On the % scale 0 is the no-effect control and ±100 the full control effect; potency means the concentration at half of the fitted maximal effect."}
{"test": "Nrf2 qHTS screen for inhibitors; further: nearly all actives have a fitted effect of over 60% in size", "settings": "A549 ARE-Fluc reporter, luciferase luminescence, 18-24 h; activity change, negative = inhibition: at 46 µM (top of the series)", "summary_of_the_method": "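Reporter: ARE-Fluc in A549. Exposure: 18-24 h, 37 °C, 5% CO2, 5% FBS OPTI-MEM. Readouts: fluorescent cytotoxicity (CellTiter-Fluor), then luminescent Nrf2 signal after BugLite.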"}
{"compound": "CN1CCc2c(sc(NC(=O)c3ccc([N+](=O)[O-])o3)c2C(N)=O)C1", "Potency": "inconclusive: 29.1 µM [falling, single point]"}
{"compound": "C=CCn1c(=O)c2c(C)c(C)sc2n2c(Nc3ccc(OC)cc3)nnc12", "Potency": "inconclusive: 25.1 µM [falling, partial curve, poor fit]"}
{"compound": "Cc1nn(C)c(N)c1[N+](=O)[O-]", "Potency": "inactive"}
{"compound": "Brc1ccc(-c2nnc(-c3ccco3)o2)cc1", "Potency": "inconclusive: 16.4 µM [activator, partial curve]"}
{"compound": "COc1cc(Cl)ccc1OCc1cc(C(=O)N2CCN(c3ccccn3)CC2)no1", "Potency": "inconclusive: 20.6 µM [falling, single point]"}
{"compound": "CCc1nc2ccccc2c(C(=O)OCC(=O)Nc2ccc(NC(C)=O)cc2)c1C", "Potency": "inconclusive: 29.1 µM [falling, single point]"}
{"compound": "CCC(Sc1nc(-c2ccccc2)[nH]c1S(=O)(=O)c1ccc(C)cc1)C(=O)O", "note": "(stereo not drawn)", "Potency": "inactive"}
{"compound": "CCC(CC)c1nnc(NC(=O)c2ccc(N3CCCC3=O)cc2)s1", "Potency": "inconclusive: 6.51 µM [falling, single point]"}
{"compound": "COc1ccc(CCC(=O)Nc2ccc(Br)cn2)cc1", "Potency": "inconclusive: 29.1 µM [falling, single point]"}
{"compound": "Cc1oc(-c2cccc(Cl)c2)nc1CN1CCC(C(=O)N2CCN(c3ccccc3F)CC2)CC1", "Potency": "inconclusive: 29.1 µM [falling, single point]"}
{"compound": "CCC(C(=O)Nc1cnccn1)c1ccccc1", "note": "(stereo not drawn)", "Potency": "inconclusive: 7.31 µM [falling, single point]"}
{"compound": "COc1ccc(OC)c(NC(=O)c2cnc(Nc3ccc(C)c(Cl)c3)c3ccccc23)c1", "activity change, negative = inhibition": "inactive: 8.74% [at 9.27 µM]"}
{"compound": "COc1ccc(OC)c(NC(=O)CSc2nnc(NC(=O)c3ccco3)s2)c1", "Potency": "inactive"}
{"compound": "C/C(Cl)=C/CSc1nn2c(=O)c3ccccc3nc2s1", "Potency": "inconclusive: 20.6 µM [activator, partial curve, poor fit]"}
{"compound": "O=C1c2ccccc2C(=O)C1c1ccnc2ccccc12", "Potency": "inconclusive: 0.411 µM [activator, full curve]"}
{"compound": "N/C(Cc1ccc([N+](=O)[O-])cc1)=N\\OC(=O)C(c1ccccc1)c1ccccc1", "Potency": "inconclusive: 25.9 µM [falling, partial curve, poor fit]"}
{"compound": "CCOC(=O)N1CCN(C(=O)C2CCCN(S(=O)(=O)c3ccc(C)cc3)C2)CC1", "note": "(stereo not drawn)", "Potency": "inconclusive: 18.4 µM [falling, single point]"}
{"compound": "CC1Cc2ccccc2N1S(=O)(=O)c1cccc(C(=O)N2CCN(c3ncccn3)CC2)c1", "note": "(stereo not drawn)", "Potency": "inconclusive: 0.82 µM [activator, full curve, poor fit]"}
{"compound": "COc1ccccc1NC(=O)c1ccc(S(=O)(=O)N2CCC(C)CC2)cc1", "Potency": "active: 8.2 µM"}
{"compound": "OCC[n+]1ccc(/C=C/c2c[nH]c3ccccc23)cc1", "Potency": "active: 6.51 µM"}
{"compound": "CCN1CCN(C(=O)c2cnn(-c3ccc(F)cc3F)c2C2CCN(C(=O)OC(C)(C)C)CC2)CC1", "Potency": "inconclusive: 14.6 µM [activator, partial curve]"}
{"compound": "O=C(CC1SC(N2CCCCC2)=NC1=O)Nc1cccc(C(=O)NCc2ccc(F)cc2)c1", "note": "(stereo not drawn)", "Potency": "inconclusive: 29.1 µM [falling, single point]"}
{"compound": "CC1CCc2onc(C(=O)N3CCN(c4ccc(F)cc4)CC3)c2C1", "note": "(stereo not drawn)", "Potency": "inconclusive: 29.1 µM [falling, single point]"}
{"compound": "CCCOc1ccc(-c2cn3ccccc3n2)cc1", "Potency": "inconclusive: 29.1 µM [falling, single point]"}
{"compound": "CSCSC1=C(C#N)C(c2ccccc2Cl)C(C(C)=O)=C(C)N1", "note": "(stereo not drawn)", "Potency": "inconclusive: 25.9 µM [falling, partial curve, poor fit]"}
{"compound": "CC(=O)Nc1ccc(Br)c(Cl)c1", "Potency": "inactive"}
{"compound": "Cc1ccc(NC(=O)CCC(=O)NNC(=O)COc2ccc([N+](=O)[O-])cc2)c(C)c1", "Potency": "inactive"}
{"compound": "Cn1c(N)c(C(=O)CSc2ccccn2)c(=O)n(C)c1=O", "Potency": "inconclusive: 1.03 µM [activator, full curve, poor fit]"}
{"compound": "CCOc1ccc(NC(=O)CCNS(=O)(=O)c2ccc3c(c2)CCCC(=O)N3)cc1", "Potency": "inactive"}
{"compound": "O=C(Cc1ccc(Cl)cc1)Nc1ccccc1N1CCN(C(=O)c2ccccc2)CC1", "Potency": "inconclusive: 14.6 µM [falling, single point]"}
{"compound": "Cc1ccc(N2CCN(C(=O)c3ccccc3)CC2)c(C)c1", "Potency": "inactive"}
{"compound": "CC(Cc1cccs1)NC(=S)Nc1ccc(Cl)c(Cl)c1", "note": "(stereo not drawn)", "Potency": "inconclusive: 29.1 µM [activator, single point]"}
{"compound": "CC1C(c2ccccc2)N(C)C(c2ccccc2)C(C)C1(O)C#Cc1ccccc1", "note": "(stereo not drawn)", "Potency": "inactive"}
{"compound": "COc1ccc(OCc2cc(C(=O)NC3Cc4ccccc4C3)no2)c(Cl)c1", "Potency": "inconclusive: 29.1 µM [falling, single point]"}
{"compound": "Cc1onc(-c2ccccc2Cl)c1C(=O)N1CCN(c2nc3ccccc3s2)CC1", "Potency": "inconclusive: 18.4 µM [falling, partial curve, poor fit]"}
{"compound": "COc1cccc(N=CC2=C(O)CCCC2=O)c1", "Potency": "inconclusive: 1.3 µM [falling, full curve, poor fit]"}
{"compound": "COc1ccc(OC)c(-c2csc(-c3cccs3)n2)c1", "Potency": "inconclusive: 14.6 µM [activator, partial curve]"}
{"compound": "COc1ccc(S(=O)(=O)CCC(=O)N2CCN(c3ccc(C(C)=O)cc3)CC2)cc1", "Potency": "inconclusive: 20.6 µM [activator, single point]"}
{"compound": "CCCCc1nc2cc(C(=O)NCc3cn(C)nc3C)ccc2o1", "Potency": "inconclusive: 20.6 µM [falling, single point]"}
{"compound": "O=C(Nc1ccc(N2CCN(c3ccc(O)cc3)CC2)cc1)Oc1ccccc1", "Potency": "inconclusive: 0.517 µM [falling, partial curve, poor fit]"}
{"compound": "Cc1ccc(/C=C(\\C#N)c2nc3ccccc3[nH]2)s1", "Potency": "inconclusive: 4.11 µM [activator, single point]"}
{"compound": "COc1cc(Cl)c(NC(=O)CCc2nc3cccnc3n2-c2ccccc2)c(OC)c1", "Potency": "inconclusive: 0.0065 µM [falling, full curve, poor fit]"}
{"compound": "CCCCn1nc(C(=O)N(CC)CC(=O)Nc2c(F)cccc2F)c2ccccc2c1=O", "Potency": "inconclusive: 4.11 µM [falling, partial curve, poor fit]"}
